Drawing on PubChem BioAssay AID330 (DTP/NCI, 2004), this text covers survivor count and T/C for 12 compounds.

SMILES strings stand for the structures. The list shows only some results of the screen, not a fair sample: it gathers tests that were run many times, whatever their T/C, doses with no T/C, and many T/C values between a quarter and a half above the control. Further doses and runs are listed elsewhere. T/C gives the treated animals as a percentage of the vehicle group. Some entries give survivors of the animals treated and no T/C: the source files T/C as zero there, which appears to mark a toxic dose or a test without result, not a measured value. Some doses without a T/C left all or most animals alive at the check, yet need not have been tolerated: survival well below the control is almost never listed, so the zero probably covers shortened survival too. Survivors were counted at the toxicity check, usually on the fifth day, unless a day is given; later deaths do not show. Schedules are NCI's codes, taken here to give the interval after Q, in days (D) or hours (H), and the number of doses after X. Some entries hold several experiments; the values are given in rising order. Where survival is the endpoint, the PubChem record calls one and a half times the control and up active, and a quarter to a half above the control has no call in these data; cut-offs in other NCI protocols can differ.

The subject of the test is P388 leukemia ip, CD2F1 mice, survival T/C. Kind of test: NCI In Vivo Anticancer Drug Screen. Data for tumor model P388 Leukemia (intraperitoneal) in CD2F1 (CDF1) mice. The following applies: T/C endpoint: median survival time, higher T/C = longer survival.
[1] abbreviates: dose: 100.0 mg/kg/injection, schedule: Q01DX005 (ip), vehicle: Klucel (hydroxypropylcellulose) (HPC).
Setting [2] is: dose: 120.0 mg/kg/injection, schedule: Q01DX005 (ip), vehicle: Klucel (hydroxypropylcellulose) (HPC).

In the case of `O=C(C=C(C(F)(F)F)C(F)(F)F)c1c2ccccc2cc2ccccc12`, the survivor count is 4 of 5 (dose: 6.25 mg/kg/injection, schedule: Q01DX009 (ip), vehicle: DMSO); 1 of 6 (dose: 12.5 mg/kg/injection, schedule: Q01DX009 (ip), vehicle: DMSO); 0 of 6 (dose: 25.0 mg/kg/injection, schedule: Q01DX009 (ip), vehicle: DMSO).

As to `O=S1(=O)C2CCC(Br)C1CCC2Br` (stereo unspecified), the survivor count runs as follows: (dose: 6.25 mg/kg/injection, schedule: Q01DX005 (ip), vehicle: Klucel (hydroxypropylcellulose) (HPC)) 0 of 5; (dose: 12.5 mg/kg/injection, schedule: Q01DX005 (ip), vehicle: Klucel (hydroxypropylcellulose) (HPC)) 4 of 6; (dose: 25.0 mg/kg/injection, schedule: Q01DX005 (ip), vehicle: Klucel (hydroxypropylcellulose) (HPC)) 1 of 6; (dose: 50.0 mg/kg/injection, schedule: Q01DX005 (ip), vehicle: Klucel (hydroxypropylcellulose) (HPC)) 0 of 6; under setting [1], 0 of 6; (dose: 200.0 mg/kg/injection, schedule: Q01DX005 (ip), vehicle: Klucel (hydroxypropylcellulose) (HPC)) 0 of 6.

`Clc1nc(C(Cl)Cl)nc2ccccc12`: the survivor count (dose: 240.0 mg/kg/injection, schedule: Q01DX005 (ip), vehicle: saline with Tween-80) is reported as 5 of 6.

As to `Nc1ccc2cc(S(=O)(=O)O)cc(O)c2c1N=Nc1ccc(F)cc1`, the survivor count is listed as 1 of 6 (dose: 200.0 mg/kg/injection, schedule: Q01DX009 (ip), vehicle: saline) and 0 of 6 (dose: 400.0 mg/kg/injection, schedule: Q01DX009 (ip), vehicle: saline).

On to `Cc1cc(Cl)c2c(N(C)C)cccc2n1`, for which the survivor count (dose: 200.0 mg/kg/injection, schedule: Q01DX009 (ip), vehicle: acid diluted with saline) is reported as 6 of 6.

Regarding `C/C(=N\NC(=S)N1CC2CCC(CC2)C1)c1nccs1`, the T/C was 132 % of control (dose: 25.0 mg/kg/injection, schedule: Q01DX005 (ip), vehicle: saline with Tween-80) and 134 % of control (dose: 50.0 mg/kg/injection, schedule: Q01DX005 (ip), vehicle: saline with Tween-80). In addition, the survivor count by setting is: (dose: 100.0 mg/kg/injection, schedule: Q01DX005 (ip), vehicle: saline with Tween-80) 4 of 6 and 6 of 6; (dose: 200.0 mg/kg/injection, schedule: Q01DX005 (ip), vehicle: saline with Tween-80) 1 of 6.

Regarding `COc1ccc2c(NCCCCCCCCNc3c4ccc(OC)cc4nc4c(OC)cccc34)c3cccc(OC)c3nc2c1`, under “dose: 1.25 mg/kg/injection, schedule: Q01DX009 (ip), vehicle: other”, the T/C was 148 % of control. Also, the survivor count is 6 of 6 (dose: 10.0 mg/kg/injection, schedule: Q01DX009 (ip), vehicle: other) and 2 of 6 (dose: 20.0 mg/kg/injection, schedule: Q01DX009 (ip), vehicle: other).

With `CC(=O)c1cccc(NC2C(N)C(NC(=O)N(C)C)(C(C)O)C(C)(O)C2(O)COC(=O)c2c(C)cccc2O)c1` (stereo unspecified), the T/C reads like this: (dose: 0.25 mg/kg/injection, schedule: Q01DX009 (ip), vehicle: other) 134 % of control; (dose: 0.37 mg/kg/injection, schedule: Q01DX009 (ip), vehicle: acid diluted with saline) 145 % of control; (dose: 0.75 mg/kg/injection, schedule: Q01DX009 (ip), vehicle: acid diluted with saline) 131 % of control. The survivor count runs as follows: (dose: 2.0 mg/kg/injection, schedule: Q01DX009 (ip), vehicle: other) 5 of 6; (dose: 3.0 mg/kg/injection, schedule: Q01DX009 (ip), vehicle: acid diluted with saline) 5 of 6; (dose: 4.0 mg/kg/injection, schedule: Q01DX009 (ip), vehicle: other) 3 of 6.

As to `Nc1cccc(S(=O)(=O)Nc2c(N)[nH]c(=S)[nH]c2=O)c1`, the T/C under setting [2] is 142 % of control.

`CC(=O)OC(C(=O)OC1C[C@]2(O)C(OC(=O)c3ccccc3)C3[C@@]4(OC(C)=O)CO[C@H]4C[C@@H](O)[C@]3(C)C(=O)[C@@H](OC(C)=O)C(=C1C)C2(C)C)C(NC(=O)c1ccccc1)c1ccccc1` (stereo partly specified): the T/C runs as follows: (dose: 2.5 mg/kg/injection, schedule: Q01DX009 (ip), vehicle: Klucel (hydroxypropylcellulose) (HPC)) 127 % of control; (dose: 5.0 mg/kg/injection, schedule: Q01DX009 (ip), vehicle: Klucel (hydroxypropylcellulose) (HPC)) 127 % of control; (dose: 10.0 mg/kg/injection, schedule: Q01DX009 (ip), vehicle: Klucel (hydroxypropylcellulose) (HPC)) 130 % of control; (dose: 20.0 mg/kg/injection, schedule: Q01DX009 (ip), vehicle: Klucel (hydroxypropylcellulose) (HPC)) 140 % of control.

For `CCOC(=O)C1=C(C(=O)c2ccccc2)C(c2ccc([N+](=O)[O-])cc2)C(C(=O)c2ccccc2)=C(C(=O)OCC)N1`, the survivor count is 3 of 6 (dose: 60.0 mg/kg/injection, schedule: Q01DX005 (ip), vehicle: Klucel (hydroxypropylcellulose) (HPC)); 1 of 6 under setting [2]; 0 of 6 (dose: 240.0 mg/kg/injection, schedule: Q01DX005 (ip), vehicle: Klucel (hydroxypropylcellulose) (HPC)).

As for `Cc1ccc(S(=O)(=O)NCCCCCCNS(=O)(=O)c2ccc(C)cc2)cc1`, the survivor count under setting [1] is reported as 6 of 6; the survivor count (dose: 400.0 mg/kg/injection, schedule: Q01DX005 (ip), vehicle: Klucel (hydroxypropylcellulose) (HPC)) was 5 of 6 and 6 of 6.
